Experimental data reported in the supplement of paper PMC6411743.
± gives the standard deviation of the averaged measurements. The list shows a part of the results, in another mix than the full data. Most values lie at the level of the controls, where differences are scatter.

Protein sequences, listed by entry. Tags and fused reporters are not part of them. Lines headed by an entry give the natural chain unless they say otherwise; changes in a name come on top.
UniProt Q8NB90: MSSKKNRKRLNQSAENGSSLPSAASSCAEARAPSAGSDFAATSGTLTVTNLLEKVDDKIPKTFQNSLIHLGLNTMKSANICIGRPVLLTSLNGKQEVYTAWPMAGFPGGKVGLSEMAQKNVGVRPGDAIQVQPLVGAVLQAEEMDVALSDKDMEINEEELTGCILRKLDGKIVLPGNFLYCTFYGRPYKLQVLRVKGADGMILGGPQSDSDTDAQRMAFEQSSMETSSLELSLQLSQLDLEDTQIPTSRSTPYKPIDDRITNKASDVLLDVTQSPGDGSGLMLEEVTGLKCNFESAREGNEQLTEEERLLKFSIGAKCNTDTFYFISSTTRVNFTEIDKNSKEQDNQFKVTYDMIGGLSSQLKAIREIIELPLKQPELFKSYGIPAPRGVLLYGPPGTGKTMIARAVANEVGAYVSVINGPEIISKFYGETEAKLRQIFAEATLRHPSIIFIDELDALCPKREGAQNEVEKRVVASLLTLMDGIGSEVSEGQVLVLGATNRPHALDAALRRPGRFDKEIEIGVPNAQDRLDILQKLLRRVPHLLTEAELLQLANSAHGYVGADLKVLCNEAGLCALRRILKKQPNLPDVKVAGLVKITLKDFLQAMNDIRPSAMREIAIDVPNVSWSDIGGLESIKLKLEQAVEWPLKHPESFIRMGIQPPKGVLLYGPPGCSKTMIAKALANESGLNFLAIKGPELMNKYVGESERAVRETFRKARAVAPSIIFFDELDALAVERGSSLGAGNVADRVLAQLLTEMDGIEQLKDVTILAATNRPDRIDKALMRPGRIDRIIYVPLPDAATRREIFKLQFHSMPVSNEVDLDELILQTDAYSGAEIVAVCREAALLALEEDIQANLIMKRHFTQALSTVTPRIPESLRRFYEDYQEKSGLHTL
UniProt Q8TAP8: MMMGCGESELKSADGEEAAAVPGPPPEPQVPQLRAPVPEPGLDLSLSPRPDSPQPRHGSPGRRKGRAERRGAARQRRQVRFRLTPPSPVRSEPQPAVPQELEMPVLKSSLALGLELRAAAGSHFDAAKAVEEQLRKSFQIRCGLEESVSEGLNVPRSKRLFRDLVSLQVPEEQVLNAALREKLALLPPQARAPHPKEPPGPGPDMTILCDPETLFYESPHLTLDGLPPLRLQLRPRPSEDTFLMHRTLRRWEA
UniProt Q8IYB7: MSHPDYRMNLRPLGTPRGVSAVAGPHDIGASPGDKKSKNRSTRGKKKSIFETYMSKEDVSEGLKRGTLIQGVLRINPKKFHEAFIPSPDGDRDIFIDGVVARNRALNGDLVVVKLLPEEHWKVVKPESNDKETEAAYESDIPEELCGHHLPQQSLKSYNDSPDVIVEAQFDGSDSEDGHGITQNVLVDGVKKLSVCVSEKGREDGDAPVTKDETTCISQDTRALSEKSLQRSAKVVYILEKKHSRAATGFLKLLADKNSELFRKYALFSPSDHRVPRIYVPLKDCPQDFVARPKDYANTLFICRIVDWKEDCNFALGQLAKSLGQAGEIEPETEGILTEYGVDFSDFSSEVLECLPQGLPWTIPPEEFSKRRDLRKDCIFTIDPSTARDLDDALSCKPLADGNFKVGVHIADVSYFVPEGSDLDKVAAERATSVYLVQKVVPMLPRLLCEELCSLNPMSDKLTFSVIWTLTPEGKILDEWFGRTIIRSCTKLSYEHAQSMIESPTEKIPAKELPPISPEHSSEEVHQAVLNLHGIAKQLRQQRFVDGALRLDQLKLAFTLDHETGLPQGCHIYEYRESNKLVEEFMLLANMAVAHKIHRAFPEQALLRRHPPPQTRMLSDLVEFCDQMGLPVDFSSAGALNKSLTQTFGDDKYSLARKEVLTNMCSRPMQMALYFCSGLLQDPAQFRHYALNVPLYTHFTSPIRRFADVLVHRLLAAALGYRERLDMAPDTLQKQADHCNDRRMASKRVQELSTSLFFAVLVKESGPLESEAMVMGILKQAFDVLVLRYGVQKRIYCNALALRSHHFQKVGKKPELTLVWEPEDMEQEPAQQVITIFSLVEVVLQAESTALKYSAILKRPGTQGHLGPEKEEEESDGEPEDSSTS
UniProt Q8NI37: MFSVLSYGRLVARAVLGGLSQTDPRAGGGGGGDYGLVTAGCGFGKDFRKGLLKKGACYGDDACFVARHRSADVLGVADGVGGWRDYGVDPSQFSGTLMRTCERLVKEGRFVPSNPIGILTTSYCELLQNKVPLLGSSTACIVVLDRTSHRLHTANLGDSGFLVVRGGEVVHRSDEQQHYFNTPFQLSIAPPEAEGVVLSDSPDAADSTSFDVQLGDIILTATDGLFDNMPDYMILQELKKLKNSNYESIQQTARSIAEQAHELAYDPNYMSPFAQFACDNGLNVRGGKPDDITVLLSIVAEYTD
UniProt Q8IWD4: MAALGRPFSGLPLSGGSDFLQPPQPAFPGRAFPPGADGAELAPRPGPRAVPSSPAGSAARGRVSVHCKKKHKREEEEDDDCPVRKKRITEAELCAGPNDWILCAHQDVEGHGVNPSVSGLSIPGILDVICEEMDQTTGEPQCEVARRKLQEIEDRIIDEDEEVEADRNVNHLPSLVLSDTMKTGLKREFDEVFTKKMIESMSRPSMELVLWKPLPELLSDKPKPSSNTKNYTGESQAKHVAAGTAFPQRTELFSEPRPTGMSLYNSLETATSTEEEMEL
UniProt Q8NBX0: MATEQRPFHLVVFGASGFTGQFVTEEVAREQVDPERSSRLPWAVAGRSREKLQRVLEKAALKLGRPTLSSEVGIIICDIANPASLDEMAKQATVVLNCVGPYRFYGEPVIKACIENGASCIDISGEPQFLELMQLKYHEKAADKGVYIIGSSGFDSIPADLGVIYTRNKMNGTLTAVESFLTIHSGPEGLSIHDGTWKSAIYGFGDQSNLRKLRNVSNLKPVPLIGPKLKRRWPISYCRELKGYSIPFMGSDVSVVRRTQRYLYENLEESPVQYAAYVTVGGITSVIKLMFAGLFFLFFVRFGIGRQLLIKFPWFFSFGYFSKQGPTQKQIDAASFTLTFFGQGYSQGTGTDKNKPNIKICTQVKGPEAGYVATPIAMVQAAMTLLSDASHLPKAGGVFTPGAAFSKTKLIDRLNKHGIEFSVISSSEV
UniProt Q8N4Q1: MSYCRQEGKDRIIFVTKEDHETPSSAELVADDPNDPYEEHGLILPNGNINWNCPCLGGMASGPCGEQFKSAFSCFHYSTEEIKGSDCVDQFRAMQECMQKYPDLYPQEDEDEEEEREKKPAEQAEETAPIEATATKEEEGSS
UniProt Q8N448: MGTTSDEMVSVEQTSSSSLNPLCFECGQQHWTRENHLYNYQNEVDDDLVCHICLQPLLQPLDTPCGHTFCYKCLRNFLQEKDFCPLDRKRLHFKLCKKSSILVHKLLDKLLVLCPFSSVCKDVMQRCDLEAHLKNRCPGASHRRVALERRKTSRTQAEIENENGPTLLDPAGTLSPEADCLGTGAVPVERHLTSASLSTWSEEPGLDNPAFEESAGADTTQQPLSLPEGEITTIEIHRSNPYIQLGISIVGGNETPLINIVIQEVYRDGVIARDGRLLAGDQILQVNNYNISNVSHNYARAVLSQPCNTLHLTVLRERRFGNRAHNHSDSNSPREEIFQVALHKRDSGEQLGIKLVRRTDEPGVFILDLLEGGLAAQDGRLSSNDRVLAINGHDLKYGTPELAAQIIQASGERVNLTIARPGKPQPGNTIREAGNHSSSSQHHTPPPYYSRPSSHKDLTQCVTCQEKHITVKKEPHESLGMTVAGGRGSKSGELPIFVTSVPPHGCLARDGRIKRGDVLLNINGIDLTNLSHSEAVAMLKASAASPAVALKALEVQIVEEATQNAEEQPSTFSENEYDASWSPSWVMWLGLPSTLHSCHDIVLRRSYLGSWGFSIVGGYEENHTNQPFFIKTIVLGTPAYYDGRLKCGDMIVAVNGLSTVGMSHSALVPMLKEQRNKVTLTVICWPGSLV
UniProt Q8N122, whole entry: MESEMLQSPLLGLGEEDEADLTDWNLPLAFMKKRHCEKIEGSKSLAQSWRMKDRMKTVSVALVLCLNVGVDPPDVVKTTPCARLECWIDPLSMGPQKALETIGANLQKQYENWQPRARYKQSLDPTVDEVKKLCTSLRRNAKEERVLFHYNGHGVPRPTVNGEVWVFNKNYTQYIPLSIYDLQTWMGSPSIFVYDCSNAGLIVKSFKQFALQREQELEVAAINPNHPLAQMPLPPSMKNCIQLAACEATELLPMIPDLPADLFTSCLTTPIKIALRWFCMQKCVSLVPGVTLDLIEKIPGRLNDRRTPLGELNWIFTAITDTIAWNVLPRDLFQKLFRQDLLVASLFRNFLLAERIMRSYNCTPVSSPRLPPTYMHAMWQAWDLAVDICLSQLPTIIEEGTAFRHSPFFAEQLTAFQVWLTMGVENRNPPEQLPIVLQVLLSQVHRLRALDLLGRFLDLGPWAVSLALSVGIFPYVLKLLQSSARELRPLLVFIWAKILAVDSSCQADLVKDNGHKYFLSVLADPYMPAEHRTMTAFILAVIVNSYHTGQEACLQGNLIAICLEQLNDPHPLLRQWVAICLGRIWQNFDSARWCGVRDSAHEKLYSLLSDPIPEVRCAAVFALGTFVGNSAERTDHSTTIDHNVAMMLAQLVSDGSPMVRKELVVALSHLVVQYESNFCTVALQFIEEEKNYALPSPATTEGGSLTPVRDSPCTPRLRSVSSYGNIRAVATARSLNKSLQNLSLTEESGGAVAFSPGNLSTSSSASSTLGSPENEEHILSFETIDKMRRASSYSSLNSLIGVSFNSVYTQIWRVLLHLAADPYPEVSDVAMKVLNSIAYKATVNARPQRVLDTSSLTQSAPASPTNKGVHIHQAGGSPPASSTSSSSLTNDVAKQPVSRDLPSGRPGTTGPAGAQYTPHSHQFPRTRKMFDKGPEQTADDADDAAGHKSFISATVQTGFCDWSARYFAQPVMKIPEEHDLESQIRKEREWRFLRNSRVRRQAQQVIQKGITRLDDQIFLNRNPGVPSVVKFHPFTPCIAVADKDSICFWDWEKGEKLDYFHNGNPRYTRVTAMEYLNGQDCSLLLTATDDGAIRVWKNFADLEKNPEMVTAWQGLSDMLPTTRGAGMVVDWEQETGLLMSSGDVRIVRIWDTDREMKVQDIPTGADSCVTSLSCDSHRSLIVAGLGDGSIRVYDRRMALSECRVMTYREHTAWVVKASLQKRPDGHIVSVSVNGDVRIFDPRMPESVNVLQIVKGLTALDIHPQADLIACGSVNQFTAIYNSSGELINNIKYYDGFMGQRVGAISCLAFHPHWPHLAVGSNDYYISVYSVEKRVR
UniProt Q8N488: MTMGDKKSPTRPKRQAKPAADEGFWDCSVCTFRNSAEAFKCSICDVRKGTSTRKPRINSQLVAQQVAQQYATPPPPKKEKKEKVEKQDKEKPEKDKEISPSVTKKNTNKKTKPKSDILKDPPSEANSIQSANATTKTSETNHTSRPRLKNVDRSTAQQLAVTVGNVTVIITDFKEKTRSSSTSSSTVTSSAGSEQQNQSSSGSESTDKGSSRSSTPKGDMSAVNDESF
UniProt Q8NEY8: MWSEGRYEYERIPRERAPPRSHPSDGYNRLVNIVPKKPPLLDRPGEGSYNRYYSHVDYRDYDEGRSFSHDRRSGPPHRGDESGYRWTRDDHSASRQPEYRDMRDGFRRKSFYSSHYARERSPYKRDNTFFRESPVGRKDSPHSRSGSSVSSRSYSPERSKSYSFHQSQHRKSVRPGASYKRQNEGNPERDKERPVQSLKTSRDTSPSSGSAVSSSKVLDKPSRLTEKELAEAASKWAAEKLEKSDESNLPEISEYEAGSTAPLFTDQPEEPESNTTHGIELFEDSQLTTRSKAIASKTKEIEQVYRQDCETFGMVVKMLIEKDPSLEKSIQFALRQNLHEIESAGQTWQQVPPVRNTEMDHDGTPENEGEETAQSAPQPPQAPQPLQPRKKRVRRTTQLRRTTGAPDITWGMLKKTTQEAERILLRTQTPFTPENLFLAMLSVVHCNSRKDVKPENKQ
UniProt Q8NHH9: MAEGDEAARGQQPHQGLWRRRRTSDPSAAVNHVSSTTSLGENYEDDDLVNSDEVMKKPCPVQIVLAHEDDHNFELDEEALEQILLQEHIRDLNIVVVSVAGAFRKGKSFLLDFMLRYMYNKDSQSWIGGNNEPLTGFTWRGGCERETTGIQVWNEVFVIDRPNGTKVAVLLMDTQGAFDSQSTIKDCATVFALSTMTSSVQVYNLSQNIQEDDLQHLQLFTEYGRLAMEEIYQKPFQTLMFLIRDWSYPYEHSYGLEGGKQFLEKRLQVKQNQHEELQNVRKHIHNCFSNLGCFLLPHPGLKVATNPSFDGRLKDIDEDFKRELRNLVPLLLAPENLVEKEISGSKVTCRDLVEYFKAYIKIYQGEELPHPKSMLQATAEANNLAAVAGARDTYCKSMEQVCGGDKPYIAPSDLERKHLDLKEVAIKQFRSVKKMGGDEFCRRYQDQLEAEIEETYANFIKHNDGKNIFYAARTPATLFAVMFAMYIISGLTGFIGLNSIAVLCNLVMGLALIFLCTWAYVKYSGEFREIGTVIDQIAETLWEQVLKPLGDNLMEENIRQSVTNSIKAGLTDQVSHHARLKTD

These targets were tested with Nc1ncnc2c1ncn2[C@@H]1O[C@H](COP(=O)(O)OP(=O)(O)OP(=O)(O)O)[C@@H](O)[C@H]1O [adenosine triphosphate] (assay: NP40-soluble protein abundance relative to vehicle (solubility fold change) (ratio); higher = more soluble protein in presence of ATP). Settings: concentration: 0.1mM.
How it was run: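 Data come from three independent experiments in which Dounce-homogenised Jurkat crude lysate was treated at eight concentrations from 0.1 to 10 mM. Treatment ran 10 min at room temperature and then 3 min at 37 °C, after which 0.8% NP40 and benzonase were added for 60 min at 4 °C before ultracentrifugation. The supernatant underwent TMT labelling and LC-MS/MS, and vsn-normalised intensities were expressed as fold change against the detergent-processed vehicle in each replicate.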

Row | Target | NP40-soluble protein abundance
1 | DTWD2 (UniProt Q8NBA8) | 1 ± 0.059
2 | SPATA5 (UniProt Q8NB90) | 1.11 ± 0.043
3 | SUPV3L1 (UniProt Q8IYB8) | 1.06 ± 0.056
4 | THNSL1 (UniProt Q8IYQ7) | 1.06 ± 0.065
5 | ZCCHC9 (UniProt Q8N567) | 0.991 ± 0.066
6 | UniProt Q8IWV8 and related entries | 1.08 ± 0.059
7 | PPP1R35 (UniProt Q8TAP8) | 0.906 ± 0.12
8 | PSD4 (UniProt Q8NDX1) | 1 ± 0.024
9 | RFLNB (UniProt Q8N5W9) | 0.953 ± 0.051
10 | INTS1 (UniProt Q8N201) | 0.9777 ± 0.0031
11 | DIS3L2 (UniProt Q8IYB7) | 1.04 ± 0.028
12 | PPTC7 (UniProt Q8NI37) | 0.985 ± 0.04
13 | UniProt Q8N4C8 and related entries | 0.986 ± 0.076
14 | PTGR2 (UniProt Q8N8N7) | 1 ± 0.038
15 | CCDC117 (UniProt Q8IWD4) | 0.96 ± 0.024
16 | TTL (UniProt Q8NG68) | 1.09 ± 0.05
17 | SCCPDH (UniProt Q8NBX0) | 1.04 ± 0.072
18 | DDHD1 (UniProt Q8NEL9) | 1.02 ± 0.016
19 | UniProt Q8N4Q1 and related entries | 0.917 ± 0.095
20 | LNX2 (UniProt Q8N448) | 0.906 ± 0.13
21 | UniProt Q8N122 and related entries | 1.05 ± 0.049
22 | UniProt Q8N6G5 and related entries | 1.04 ± 0.11
23 | UBR1 (UniProt Q8IWV7) | 1.09 ± 0.079
24 | UniProt Q8IVW6 and related entries | 1.04 ± 0.054
25 | RYBP (UniProt Q8N488) | 0.996 ± 0.049
26 | UniProt Q8NEY8 and related entries | 0.97 ± 0.12
27 | UniProt Q8NHH9 and related entries | 1.12 ± 0.039

7 entries from above in a different format:
Row,Target,NP40-soluble protein abundance
2,SPATA5 (UniProt Q8NB90),1.11 ± 0.043
6,UniProt Q8IWV8 and related entries,1.08 ± 0.059
10,INTS1 (UniProt Q8N201),0.9777 ± 0.0031
16,TTL (UniProt Q8NG68),1.09 ± 0.05
17,SCCPDH (UniProt Q8NBX0),1.04 ± 0.072
18,DDHD1 (UniProt Q8NEL9),1.02 ± 0.016
25,RYBP (UniProt Q8N488),0.996 ± 0.049
